Laboratory results as given in PMC7610265.
Results are given in words; binding and its absence hold for the method and conditions named. In cells and extracts the contact can be indirect. Some binding calls cover weakened binding; strength is not graded here. For part of these data: Sequences can lack the tags named with a protein.

The chains behind the UniProt entries cited, without tags or fusion partners. Where a name states a change or a piece, a line headed by the entry shows the natural chain unless it says otherwise.
UniProt Q14145: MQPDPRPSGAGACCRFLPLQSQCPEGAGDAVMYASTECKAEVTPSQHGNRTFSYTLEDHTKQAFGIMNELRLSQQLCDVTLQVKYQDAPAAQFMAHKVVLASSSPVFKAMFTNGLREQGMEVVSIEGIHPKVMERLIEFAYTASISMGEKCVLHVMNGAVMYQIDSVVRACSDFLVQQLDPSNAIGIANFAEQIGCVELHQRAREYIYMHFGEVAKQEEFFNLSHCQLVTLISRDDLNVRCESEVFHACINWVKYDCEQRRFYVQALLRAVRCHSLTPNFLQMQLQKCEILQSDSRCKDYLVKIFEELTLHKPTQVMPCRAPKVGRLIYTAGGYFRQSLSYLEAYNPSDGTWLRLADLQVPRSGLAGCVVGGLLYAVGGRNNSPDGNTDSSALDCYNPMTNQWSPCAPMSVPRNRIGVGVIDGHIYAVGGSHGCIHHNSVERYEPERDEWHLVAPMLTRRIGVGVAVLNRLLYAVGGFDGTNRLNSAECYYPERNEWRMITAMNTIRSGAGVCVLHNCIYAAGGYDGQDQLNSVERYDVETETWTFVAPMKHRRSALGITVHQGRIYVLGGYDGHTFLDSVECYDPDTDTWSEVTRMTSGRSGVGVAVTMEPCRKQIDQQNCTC
UniProt P48436: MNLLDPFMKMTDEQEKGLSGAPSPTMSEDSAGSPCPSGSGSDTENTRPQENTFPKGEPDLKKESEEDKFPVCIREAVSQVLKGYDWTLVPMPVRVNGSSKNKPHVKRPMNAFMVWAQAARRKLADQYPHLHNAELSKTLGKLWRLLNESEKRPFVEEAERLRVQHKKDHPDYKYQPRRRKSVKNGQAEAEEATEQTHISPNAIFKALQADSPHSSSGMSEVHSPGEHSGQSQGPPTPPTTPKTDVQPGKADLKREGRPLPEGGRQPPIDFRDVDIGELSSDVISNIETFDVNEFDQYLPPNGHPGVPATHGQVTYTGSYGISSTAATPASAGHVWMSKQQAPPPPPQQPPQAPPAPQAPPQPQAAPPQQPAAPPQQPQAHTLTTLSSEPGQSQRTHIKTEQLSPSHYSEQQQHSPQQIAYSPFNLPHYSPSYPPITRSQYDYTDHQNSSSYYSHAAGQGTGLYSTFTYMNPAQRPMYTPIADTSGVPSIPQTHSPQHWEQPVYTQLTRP

Experiments:
[1] = molecular target: KEAP1 (tag not told for these experiments) (human) (UniProt Q14145); experiment: co-IP; HEK293T cells expressing Flag-tagged WT SOX9, truncated SOX9 mutants or SOX9 degron deletion mutants
[2] = molecular target: HA-tagged full-length KEAP1 (HA-KEAP1), wild type (human) (UniProt Q14145); experiment: co-IP; HA-KEAP1 full length or truncation mutants coexpressed with Flag-SOX9 in 293T cells; precipitated with HA antibody, Flag-SOX9 detected with Flag antibody; 20 uM MG132 for 6 h
[3] = molecular target: HA-KEAP1 R470C (cancer-associated "superbinder" mutant) (human) (UniProt Q14145); experiment: co-IP; HEK293T cells expressing HA-tagged WT KEAP1 or cancer-associated KEAP1 mutants; 20 uM MG132 for 6 h before harvesting
[4] = molecular target: KEAP1 (tag not told for these experiments) (human) (UniProt Q14145); experiment: co-IP; HEK293T cells with or without ectopic CKIγ1 expression
[5] = molecular target: Flag-KEAP1 G603W (lung carcinoma-associated mutant) (human) (UniProt Q14145); experiment: co-IP; HEK293T cells expressing Flag-tagged WT KEAP1 or lung carcinoma-associated KEAP1 mutants
[6] = molecular target: Flag-KEAP1 R204P (lung carcinoma-associated mutant) (human) (UniProt Q14145); experiment: as above
[7] = molecular target: Flag-KEAP1 W497L (lung carcinoma-associated mutant) (human) (UniProt Q14145); experiment: as above
[8] = molecular target: Flag-tagged wild-type KEAP1 (Flag-KEAP1) (human) (UniProt Q14145); experiment: as above
[9] = molecular target: Flag-KEAP1 E611D (lung carcinoma-associated mutant) (human) (UniProt Q14145); experiment: as above
[10] = molecular target: KEAP1 (tag not told for these experiments) (human) (UniProt Q14145); experiment: co-IP; exogenous KEAP1, with or without etoposide treatment (Figure S6D; cells and tags not shown)
[11] = molecular target: SOX9 (HEK293T cells; tag not told for these experiments) (UniProt P48436); experiment: co-IP; SOX9 immunoprecipitates from HEK293T cells expressing HA-tagged CUL3 adaptor constructs, immunoblotted; 20 uM MG132 for 6 h before harvesting
[12] = molecular target: HA-tagged full-length KEAP1 (HA-KEAP1), wild type (human) (UniProt Q14145); experiment: co-IP; HEK293T cells; with or without γ protein phosphatase treatment for 1 h at 37 °C prior to HA-KEAP1 IP and His-SOX9 immunoblot
[13] = molecular target: endogenous KEAP1 (human (endogenous in Huh7, H1299)) (UniProt Q14145); experiment: co-IP; H1299 cells with or without etoposide (20 uM) treatment
[14] = molecular target: endogenous KEAP1 (human (endogenous in Huh7, H1299)) (UniProt Q14145); experiment: co-IP; endogenous proteins in Huh7 and A549 (KEAP1 mutant) cell lysates; 20 uM MG132 for 6 h before harvesting

“Flag-tagged SOX9 (Flag-SOX9), wild type (from UniProt P48436 1-509)” was tested, and the binding [1] was “binds” and the binding [2] was “binds”.

With “SOX9 (HEK293T cells; tag not told for these experiments) (from UniProt P48436 1-509)” the binding [3] was “binds”, the binding [4] was “binds” and the binding [5] was “binds weakly”. For the same molecule, the binding [6] was “binds weakly”, the binding [7] was “binds weakly” and the binding [8] was “binds”. The binding [9] was “binds weakly” and the binding [10] was “binds”.

For “HA-tagged full-length KEAP1 (HA-KEAP1), wild type (from UniProt Q14145 1-624)”, the binding [11] was “binds”.

With His-SOX9 (from UniProt P48436 1-509) the binding [12] was “binds”.

In the case of “endogenous SOX9 (from UniProt P48436 1-509)”, the binding [13] is reported as “binds” and the binding [14] is reported as “binds”.

B1: HA-tagged KLHL3 (protein, UniProt Q9UH77 1-587)
chain: MEGESVKLSSQTLIQAGDDEKNQRTITVNPAHMGKAFKVMNELRSKQLLCDVMIVAEDVEIEAHRVVLAACSPYFCAMFTGDMSESKAKKIEIKDVDGQTLSKLIDYIYTAEIEVTEENVQVLLPAASLLQLMDVRQNCCDFLQSQLHPTNCLGIRAFADVHTCTDLLQQANAYAEQHFPEVMLGEEFLSLSLDQVCSLISSDKLTVSSEEKVFEAVISWINYEKETRLEHMAKLMEHVRLPLLPRDYLVQTVEEEALIKNNNTCKDFLIEAMKYHLLPLDQRLLIKNPRTKPRTPVSLPKVMIVVGGQAPKAIRSVECYDFEEDRWDQIAELPSRRCRAGVVFMAGHVYAVGGFNGSLRVRTVDVYDGVKDQWTSIASMQERRSTLGAAVLNDLLYAVGGFDGSTGLASVEAYSYKTNEWFFVAPMNTRRSSVGVGVVEGKLYAVGGYDGASRQCLSTVEQYNPATNEWIYVADMSTRRSGAGVGVLSGQLYATGGHDGPLVRKSVEVYDPGTNTWKQVADMNMCRRNAGVCAVNGLLYVVGGDDGSCNLASVEYYNPVTDKWTLLPTNMSTGRSYAGVAVIHKSL
B1 was tested, and the binding [11] was “binds”.
